# The supplement of paper PMC10849652
# Protein sequences, listed by entry. Tags and fused reporters are not part of them. Lines headed by an entry give the natural chain unless they say otherwise; changes in a name come on top.
# UniProt Q8TBX8: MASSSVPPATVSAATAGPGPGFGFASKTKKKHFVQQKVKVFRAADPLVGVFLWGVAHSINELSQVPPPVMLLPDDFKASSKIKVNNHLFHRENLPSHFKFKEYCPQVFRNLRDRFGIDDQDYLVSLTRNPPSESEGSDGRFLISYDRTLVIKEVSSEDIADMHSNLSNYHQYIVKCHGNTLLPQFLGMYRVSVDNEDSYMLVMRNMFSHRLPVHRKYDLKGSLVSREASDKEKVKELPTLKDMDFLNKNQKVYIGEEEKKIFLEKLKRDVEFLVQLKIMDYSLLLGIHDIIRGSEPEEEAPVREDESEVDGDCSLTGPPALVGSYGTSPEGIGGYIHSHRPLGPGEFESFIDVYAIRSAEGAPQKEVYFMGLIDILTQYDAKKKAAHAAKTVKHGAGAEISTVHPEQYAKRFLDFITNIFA
# UniProt Q9Y5Y5: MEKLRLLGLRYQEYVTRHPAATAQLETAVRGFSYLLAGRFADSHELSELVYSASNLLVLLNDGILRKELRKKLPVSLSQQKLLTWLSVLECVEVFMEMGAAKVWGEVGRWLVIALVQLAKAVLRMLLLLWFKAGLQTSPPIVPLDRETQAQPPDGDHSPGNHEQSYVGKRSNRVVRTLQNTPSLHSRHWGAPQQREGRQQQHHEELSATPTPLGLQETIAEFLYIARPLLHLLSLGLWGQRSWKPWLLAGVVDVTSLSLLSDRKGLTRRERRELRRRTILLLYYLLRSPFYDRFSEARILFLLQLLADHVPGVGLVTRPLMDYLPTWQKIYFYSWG
# UniProt P46019: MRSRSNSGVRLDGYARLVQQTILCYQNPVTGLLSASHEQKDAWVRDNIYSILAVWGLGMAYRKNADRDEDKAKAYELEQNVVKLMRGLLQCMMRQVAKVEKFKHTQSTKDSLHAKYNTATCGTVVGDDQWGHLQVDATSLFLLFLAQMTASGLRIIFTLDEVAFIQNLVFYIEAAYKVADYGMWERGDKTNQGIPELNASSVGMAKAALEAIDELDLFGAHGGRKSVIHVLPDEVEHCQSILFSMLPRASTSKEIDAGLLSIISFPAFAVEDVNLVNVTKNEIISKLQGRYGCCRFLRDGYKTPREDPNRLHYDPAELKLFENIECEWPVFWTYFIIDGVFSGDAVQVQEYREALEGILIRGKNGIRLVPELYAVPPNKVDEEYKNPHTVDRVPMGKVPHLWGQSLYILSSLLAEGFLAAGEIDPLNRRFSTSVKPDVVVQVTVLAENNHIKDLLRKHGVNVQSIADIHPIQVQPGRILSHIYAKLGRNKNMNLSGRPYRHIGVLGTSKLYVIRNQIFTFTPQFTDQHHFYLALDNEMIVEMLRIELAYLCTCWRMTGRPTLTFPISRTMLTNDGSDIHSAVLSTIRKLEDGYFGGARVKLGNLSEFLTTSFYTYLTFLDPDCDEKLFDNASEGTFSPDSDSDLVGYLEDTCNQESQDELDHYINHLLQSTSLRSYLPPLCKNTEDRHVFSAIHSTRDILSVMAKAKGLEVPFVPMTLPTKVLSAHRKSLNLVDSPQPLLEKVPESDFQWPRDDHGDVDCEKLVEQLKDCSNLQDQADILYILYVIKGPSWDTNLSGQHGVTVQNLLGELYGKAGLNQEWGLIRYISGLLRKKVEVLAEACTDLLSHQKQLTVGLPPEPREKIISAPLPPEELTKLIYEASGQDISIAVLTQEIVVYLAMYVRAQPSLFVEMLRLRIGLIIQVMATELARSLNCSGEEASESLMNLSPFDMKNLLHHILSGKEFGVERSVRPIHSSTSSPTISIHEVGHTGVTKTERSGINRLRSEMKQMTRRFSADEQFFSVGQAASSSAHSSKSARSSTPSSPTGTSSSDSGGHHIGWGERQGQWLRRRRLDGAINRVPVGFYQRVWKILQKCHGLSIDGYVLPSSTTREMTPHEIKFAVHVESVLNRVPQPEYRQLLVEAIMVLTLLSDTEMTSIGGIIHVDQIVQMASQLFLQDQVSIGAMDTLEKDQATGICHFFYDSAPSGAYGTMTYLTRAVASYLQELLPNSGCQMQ
# UniProt Q8IV08: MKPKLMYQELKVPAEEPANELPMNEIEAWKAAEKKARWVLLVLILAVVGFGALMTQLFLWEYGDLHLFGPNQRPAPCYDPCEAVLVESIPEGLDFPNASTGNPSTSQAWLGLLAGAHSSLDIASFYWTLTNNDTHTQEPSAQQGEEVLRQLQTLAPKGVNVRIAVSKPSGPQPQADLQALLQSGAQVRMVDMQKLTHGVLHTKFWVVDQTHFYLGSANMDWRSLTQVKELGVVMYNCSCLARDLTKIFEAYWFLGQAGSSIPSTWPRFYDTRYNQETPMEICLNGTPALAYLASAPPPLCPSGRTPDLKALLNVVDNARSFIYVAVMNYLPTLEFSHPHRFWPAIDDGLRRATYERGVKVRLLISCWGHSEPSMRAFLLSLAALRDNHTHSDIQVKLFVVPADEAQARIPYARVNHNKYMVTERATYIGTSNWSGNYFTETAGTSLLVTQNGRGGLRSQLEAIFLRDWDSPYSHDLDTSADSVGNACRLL
# UniProt Q8NCC3: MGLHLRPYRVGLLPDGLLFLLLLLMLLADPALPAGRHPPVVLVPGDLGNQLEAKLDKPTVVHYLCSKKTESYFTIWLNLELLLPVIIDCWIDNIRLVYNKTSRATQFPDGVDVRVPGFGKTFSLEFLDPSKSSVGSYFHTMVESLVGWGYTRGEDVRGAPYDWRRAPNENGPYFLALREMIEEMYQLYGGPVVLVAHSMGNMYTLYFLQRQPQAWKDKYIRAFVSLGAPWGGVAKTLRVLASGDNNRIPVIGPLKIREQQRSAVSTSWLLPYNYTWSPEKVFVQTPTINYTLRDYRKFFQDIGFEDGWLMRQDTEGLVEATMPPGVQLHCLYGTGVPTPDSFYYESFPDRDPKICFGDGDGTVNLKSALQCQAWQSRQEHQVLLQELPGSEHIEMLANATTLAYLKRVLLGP
# UniProt Q8NEB9, whole entry, looked up: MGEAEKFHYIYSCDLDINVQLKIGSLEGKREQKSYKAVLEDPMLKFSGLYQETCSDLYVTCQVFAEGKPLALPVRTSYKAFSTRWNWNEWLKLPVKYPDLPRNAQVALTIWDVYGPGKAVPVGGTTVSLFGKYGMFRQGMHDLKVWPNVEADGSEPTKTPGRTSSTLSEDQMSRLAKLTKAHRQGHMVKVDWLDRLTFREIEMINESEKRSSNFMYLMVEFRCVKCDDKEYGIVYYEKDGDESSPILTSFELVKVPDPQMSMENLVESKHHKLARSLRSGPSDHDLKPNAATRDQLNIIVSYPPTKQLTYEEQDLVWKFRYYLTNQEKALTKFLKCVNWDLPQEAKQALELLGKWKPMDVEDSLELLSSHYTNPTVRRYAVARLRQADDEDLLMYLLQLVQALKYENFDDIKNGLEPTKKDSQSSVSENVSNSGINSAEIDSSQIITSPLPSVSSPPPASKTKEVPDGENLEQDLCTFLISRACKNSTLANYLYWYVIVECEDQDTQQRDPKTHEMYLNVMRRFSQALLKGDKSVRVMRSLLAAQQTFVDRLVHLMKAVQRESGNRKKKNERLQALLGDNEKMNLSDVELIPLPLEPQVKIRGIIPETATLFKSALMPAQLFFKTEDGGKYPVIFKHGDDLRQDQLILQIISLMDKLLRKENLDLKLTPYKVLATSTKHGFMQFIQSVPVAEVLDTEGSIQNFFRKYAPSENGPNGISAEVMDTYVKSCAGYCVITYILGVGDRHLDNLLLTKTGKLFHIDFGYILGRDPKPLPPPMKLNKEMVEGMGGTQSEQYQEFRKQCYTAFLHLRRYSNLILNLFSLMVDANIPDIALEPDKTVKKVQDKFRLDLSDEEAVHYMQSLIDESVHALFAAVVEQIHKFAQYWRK
# UniProt Q9BTU6: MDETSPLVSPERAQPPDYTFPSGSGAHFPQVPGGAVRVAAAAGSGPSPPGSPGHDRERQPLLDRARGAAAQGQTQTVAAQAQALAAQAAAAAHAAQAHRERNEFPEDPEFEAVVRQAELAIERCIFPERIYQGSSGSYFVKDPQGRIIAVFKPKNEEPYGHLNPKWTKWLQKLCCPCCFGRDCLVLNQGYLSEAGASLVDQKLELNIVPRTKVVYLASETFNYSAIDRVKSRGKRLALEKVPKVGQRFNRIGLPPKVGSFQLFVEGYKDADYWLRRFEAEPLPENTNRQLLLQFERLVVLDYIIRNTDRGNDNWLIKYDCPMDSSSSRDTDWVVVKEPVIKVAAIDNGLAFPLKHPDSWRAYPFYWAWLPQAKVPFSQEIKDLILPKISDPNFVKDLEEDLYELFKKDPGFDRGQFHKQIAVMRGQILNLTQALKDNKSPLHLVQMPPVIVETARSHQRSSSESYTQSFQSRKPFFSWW
# UniProt Q9NXJ5: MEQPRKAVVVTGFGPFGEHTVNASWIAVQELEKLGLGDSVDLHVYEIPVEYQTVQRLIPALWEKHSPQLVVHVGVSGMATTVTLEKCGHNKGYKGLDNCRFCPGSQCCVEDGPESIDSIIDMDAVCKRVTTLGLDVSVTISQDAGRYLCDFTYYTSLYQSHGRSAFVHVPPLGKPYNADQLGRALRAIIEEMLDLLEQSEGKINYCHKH
# UniProt P42336, whole entry, looked up: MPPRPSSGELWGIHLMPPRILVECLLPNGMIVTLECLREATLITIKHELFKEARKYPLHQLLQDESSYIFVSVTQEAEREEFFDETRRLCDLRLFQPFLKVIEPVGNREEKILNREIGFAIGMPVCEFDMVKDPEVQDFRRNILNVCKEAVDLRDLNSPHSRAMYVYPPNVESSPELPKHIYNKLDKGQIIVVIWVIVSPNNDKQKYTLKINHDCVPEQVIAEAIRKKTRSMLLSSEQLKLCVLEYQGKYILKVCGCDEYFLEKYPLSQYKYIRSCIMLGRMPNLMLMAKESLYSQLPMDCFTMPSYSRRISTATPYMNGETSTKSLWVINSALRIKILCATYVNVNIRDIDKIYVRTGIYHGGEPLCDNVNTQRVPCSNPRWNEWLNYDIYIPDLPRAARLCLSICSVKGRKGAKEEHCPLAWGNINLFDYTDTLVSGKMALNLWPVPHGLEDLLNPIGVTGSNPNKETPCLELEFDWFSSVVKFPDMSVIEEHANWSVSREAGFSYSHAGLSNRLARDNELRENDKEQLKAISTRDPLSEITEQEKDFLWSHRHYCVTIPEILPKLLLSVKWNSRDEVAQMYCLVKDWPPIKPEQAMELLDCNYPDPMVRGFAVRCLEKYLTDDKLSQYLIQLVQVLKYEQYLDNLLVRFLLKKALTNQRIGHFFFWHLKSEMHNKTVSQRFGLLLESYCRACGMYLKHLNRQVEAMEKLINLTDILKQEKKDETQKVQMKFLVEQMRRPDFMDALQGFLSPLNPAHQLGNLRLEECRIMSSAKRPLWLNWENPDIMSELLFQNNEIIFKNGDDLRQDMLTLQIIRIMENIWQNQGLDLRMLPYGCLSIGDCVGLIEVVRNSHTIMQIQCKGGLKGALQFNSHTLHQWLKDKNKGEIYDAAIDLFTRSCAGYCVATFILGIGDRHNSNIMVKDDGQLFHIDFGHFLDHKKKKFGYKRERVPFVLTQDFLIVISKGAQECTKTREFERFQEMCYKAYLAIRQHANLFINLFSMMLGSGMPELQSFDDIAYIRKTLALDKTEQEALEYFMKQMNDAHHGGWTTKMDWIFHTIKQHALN
# UniProt P0C869: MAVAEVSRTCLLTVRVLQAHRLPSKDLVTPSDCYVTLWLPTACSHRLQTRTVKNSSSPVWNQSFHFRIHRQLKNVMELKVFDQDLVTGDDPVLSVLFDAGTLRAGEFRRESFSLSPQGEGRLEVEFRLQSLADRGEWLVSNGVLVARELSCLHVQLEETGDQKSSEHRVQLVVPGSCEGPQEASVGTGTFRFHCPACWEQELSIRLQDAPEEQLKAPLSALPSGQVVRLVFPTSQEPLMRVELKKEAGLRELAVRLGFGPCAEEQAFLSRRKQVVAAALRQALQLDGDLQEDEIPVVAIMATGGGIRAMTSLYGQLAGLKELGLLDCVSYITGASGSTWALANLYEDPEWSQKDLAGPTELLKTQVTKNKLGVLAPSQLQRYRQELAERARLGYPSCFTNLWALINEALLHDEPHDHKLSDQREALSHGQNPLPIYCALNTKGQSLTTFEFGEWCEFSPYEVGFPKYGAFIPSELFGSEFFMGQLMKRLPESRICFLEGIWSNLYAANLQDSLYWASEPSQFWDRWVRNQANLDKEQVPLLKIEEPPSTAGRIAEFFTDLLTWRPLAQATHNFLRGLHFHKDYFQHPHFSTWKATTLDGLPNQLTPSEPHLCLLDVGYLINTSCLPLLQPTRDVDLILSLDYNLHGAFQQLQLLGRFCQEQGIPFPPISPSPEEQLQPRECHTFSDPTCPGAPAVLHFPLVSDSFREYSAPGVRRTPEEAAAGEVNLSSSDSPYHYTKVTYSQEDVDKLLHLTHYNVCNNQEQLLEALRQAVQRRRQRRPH
# UniProt Q8N2A8: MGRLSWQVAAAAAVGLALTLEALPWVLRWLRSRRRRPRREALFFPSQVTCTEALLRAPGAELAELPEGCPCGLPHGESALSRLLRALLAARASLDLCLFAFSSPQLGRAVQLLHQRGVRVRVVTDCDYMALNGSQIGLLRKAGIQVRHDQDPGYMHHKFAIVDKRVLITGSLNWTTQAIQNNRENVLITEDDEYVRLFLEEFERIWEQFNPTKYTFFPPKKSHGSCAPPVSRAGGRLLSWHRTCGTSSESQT
# The other results are listed elsewhere or left out.
# Legend:
# Assay in all cases: log2 fold change, soluble protein after heating vs DMSO (PISA); higher = thermal stabilisation; K562 cells, 10 uM, 30 min; active = over 0.2 and 3.5 SD of the protein, either way, in both replicates (recomputed)
# [1] = compound: CS(=O)(=O)c1ccc(-c2cnc(N)c(C(=O)Nc3ccccc3)n2)cc1
# Summary of the method: (§1)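 K562 cells at 2×10^6 cells/mL were exposed to 10 μM compound for 30 min, then aliquots were heated for 3 min across 48°C-58°C, pooled, and extracted in PBS containing 0.5% NP-40 at 4°C. The supernatant after 21,000xg for 90 min was taken as soluble protein and measured by TMTpro 16plex LC-MS/MS with channel sums equalised. Thermal stability is reported relative to control samples, with values from duplicates. Fold changes are given on a log2 scale.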
# [2] = compound: C[C@@H](Oc1cc(-c2cnn(C3CCNCC3)c2)cnc1N)c1c(Cl)ccc(F)c1Cl [crizotinib]
# Summary of the method: as §1
# [3] = compound: C[C@@H]1COCCN1C2=NC(=NC(=C2)C3(CC3)S(=O)(=O)C)C4=C5C=CNC5=CC=C4
# Summary of the method: as §1
# [4] = compound: C[C@H](C1=CC=C(C=C1)C(=O)NC2=C3C=CNC3=NC=C2)N
# Summary of the method: as §1
# [5] = compound: Cc1cc(Nc2cc(CN3CCOCC3)c3nc(C)c(Cc4ccc(Cl)cc4F)n3n2)n[nH]1 [gandotinib]
# Summary of the method: as §1
# [6] = compound: Cc1cc(SCc2sc(-c3ccc(C(F)(F)F)cc3)nc2C)ccc1OCC(=O)O
# Summary of the method: as §1
# [7] = compound: Cc1ccc(-n2nc(C(C)(C)C)cc2NC(=O)Nc2ccc(OCCN3CCOCC3)c3ccccc23)cc1 [doramapimod]
# Summary of the method: as §1
# [8] = compound: Cc1ccc(C(=O)N(CCCN)[C@@H](c2nc3cc(Cl)ccc3c(=O)n2Cc2ccccc2)C(C)C)cc1 [ispinesib]
# Summary of the method: as §1
# [9] = compound: Cc1ccc(NC(=O)c2ccc(CN3CC[C@H](N(C)C)C3)c(C(F)(F)F)c2)cc1Nc1nccc(-c2cncnc2)n1 [bafetinib]
# Summary of the method: as §1
# [10] = compound: Cc1cccc(CC(=O)N2CCc3c2ccc(-c2cn(C)c4ncnc(N)c24)c3F)n1
# Summary of the method: as §1
# [11] = compound: Cc1cn(-c2cc(NC(=O)c3ccc(C)c(Nc4nccc(-c5cccnc5)n4)c3)cc(C(F)(F)F)c2)cn1 [nilotinib]
# Summary of the method: as §1
# [12] = compound: Cc1nc(Nc2n[nH]c3c2CN(C(=O)N[C@H](CN(C)C)c2ccccc2)C3(C)C)c2sccc2n1
# Summary of the method: as §1
# [13] = compound: Cc1nc(Nc2ncc(C(=O)Nc3c(C)cccc3Cl)s2)cc(N2CCN(CCO)CC2)n1 [dasatinib]
# Summary of the method: as §1
# [14] = compound: Cc1ncc(-c2ccnc(Nc3ccc(S(C)(=O)=O)cc3)n2)n1C(C)C
# Summary of the method: as §1
# [15] = compound: Cn1cc(-c2ccc3c(c2)CCN3C(=O)Cc2cccc(C(F)(F)F)c2)c2c(N)ncnc21
# Summary of the method: as §1
# [16] = compound: Cn1cc(-c2ccc3nnc(C(F)(F)c4ccc5ncccc5c4)n3n2)cn1
# Summary of the method: as §1
# [17] = compound: Cn1cncc1[C@@](N)(c1ccc(Cl)cc1)c1ccc2c(c1)c(-c1cccc(Cl)c1)cc(=O)n2C [tipifarnib]
# Summary of the method: as §1
# [18] = compound: FC(F)(F)c1ccc(/C=C/c2nc(COc3ccc(CCCCn4ccnn4)cc3)co2)cc1 [mubritinib]
# Summary of the method: as §1
# [19] = compound: C[C@H](Nc1ncnc2nc[nH]c12)c1cc2cccc(Cl)c2c(=O)n1-c1ccccc1 [duvelisib]
# Summary of the method: as §1
# [20] = compound: Cc1cc(Nc2cc(N3CCN(C)CC3)nc(Sc3ccc(NC(=O)C4CC4)cc3)n2)n[nH]1 [tozasertib]
# Summary of the method: as §1
Target,log2 fold change [1],log2 fold change [2],log2 fold change [3],log2 fold change [4],log2 fold change [5],log2 fold change [6],log2 fold change [7],log2 fold change [8],log2 fold change [9],log2 fold change [10],log2 fold change [11],log2 fold change [12],log2 fold change [13],log2 fold change [14],log2 fold change [15],log2 fold change [16],log2 fold change [17],log2 fold change [18],log2 fold change [19],log2 fold change [20]
PIP4K2C (UniProt Q8TBX8),active: 1.06,inactive: -0.058,inactive: 0.042,inactive: 0.063,inactive: 0.033,inactive: 0.057,inactive: -0.044,inactive: 0.009,inactive: 0.663,inactive: -0.112,inactive: 0.354,inactive: 0.053,inactive: -0.042,active: 1.25,inactive: 0.144,inactive: 0.568,inactive: -0.07,inactive: -0.084,,
PIGG (UniProt Q5H8A4),inactive: 0.062,inactive: -0.053,inactive: 0.01,inactive: -0.041,inactive: -0.035,inactive: 0.011,inactive: 0.098,inactive: -0.02,inactive: -0.034,inactive: 0.047,inactive: 0.083,inactive: 0.007,inactive: -0.013,inactive: -0.022,inactive: 0.004,inactive: -0.044,inactive: 0.012,inactive: 0.038,,
PEX3 (UniProt P56589),inactive: 0.193,inactive: 0.009,inactive: -0.068,inactive: -0.015,,inactive: 0.063,inactive: -0.044,inactive: 0.105,,,inactive: -0.105,inactive: 0.132,inactive: -0.28,inactive: -0.153,inactive: -0.019,inactive: -0.12,inactive: -0.09,inactive: 0.002,inactive: -0.353,inactive: -0.149
PKP3 isoform 2 (UniProt Q9Y446),inactive: 0.05,inactive: -0.089,inactive: -0.217,inactive: 0.141,inactive: 0.023,inactive: 0.278,inactive: 0.102,inactive: -0.276,inactive: 0.063,inactive: 0.159,,,inactive: -0.17,,inactive: 0.096,inactive: -0.102,inactive: 0.011,inactive: -0.07,inactive: -0.047,inactive: -0.092
PEX16 isoform 2 (UniProt Q9Y5Y5),inactive: -0.001,inactive: -0.142,inactive: 0.052,inactive: -0.072,inactive: -0.104,inactive: 0.057,inactive: 0.106,inactive: -0.23,inactive: -0.202,inactive: 0.016,inactive: -0.067,inactive: 0.006,inactive: 0.004,inactive: -0.006,inactive: 0.079,inactive: 0.079,inactive: -0.067,inactive: 0.174,,
PHKA2 (UniProt P46019),inactive: -0.247,inactive: -0.076,inactive: 0.051,inactive: -0.108,inactive: -0.083,inactive: 0.071,inactive: 0.053,inactive: -0.013,inactive: -0.107,inactive: -0.037,inactive: -0.239,inactive: 0.119,inactive: -0.07,inactive: -0.157,inactive: 0.033,inactive: -0.051,inactive: -0.055,inactive: 0.082,,
PIP4K2A (UniProt P48426),active: 0.411,inactive: -0.032,inactive: 0.027,inactive: 0.013,inactive: -0.084,inactive: 0.042,inactive: 0.026,inactive: -0.052,inactive: 0.283,inactive: 0.103,inactive: 0.077,inactive: 0.065,inactive: 0.048,active: 0.588,inactive: 0.037,inactive: 0.181,inactive: -0.081,inactive: -0.06,,
PLD3 (UniProt Q8IV08),inactive: -0.034,inactive: -0.158,inactive: 0.005,inactive: -0.03,inactive: 0.006,inactive: -0.023,inactive: 0.001,inactive: -0.132,active: -0.308,inactive: -0.007,inactive: -0.043,inactive: 0.064,inactive: -0.024,inactive: -0.03,inactive: -0.007,inactive: 0.013,inactive: -0.01,inactive: 0.035,,
PHC2 isoform 5 (UniProt Q8IXK0),inactive: -0.004,inactive: 0.088,inactive: -0.041,inactive: -0.017,,inactive: -0.023,inactive: 0.133,inactive: -0.113,inactive: 0.074,,,,inactive: -0.031,,inactive: -0.008,inactive: -0.048,,inactive: -0.039,inactive: -0.052,
PLA2G15 (UniProt Q8NCC3),inactive: 0,inactive: -0.163,inactive: -0.008,inactive: 0.015,inactive: -0.036,inactive: -0.016,inactive: 0.015,inactive: -0.055,inactive: -0.175,inactive: 0.05,inactive: -0.001,inactive: -0.025,inactive: -0.036,inactive: -0.028,inactive: 0.002,inactive: 0.09,inactive: 0.084,inactive: -0.05,,
PIK3C3 (UniProt Q8NEB9),inactive: 0.147,inactive: -0.037,inactive: -0.125,inactive: 0.06,inactive: 0.164,inactive: -0.008,inactive: 0.127,inactive: -0.101,inactive: 0.065,inactive: -0.011,inactive: 0.043,inactive: -0.039,inactive: -0.04,inactive: 0.202,inactive: -0.035,inactive: -0.006,inactive: 0.047,inactive: 0.042,active: 0.258,
PI4K2A (UniProt Q9BTU6),inactive: 0.031,inactive: -0.185,inactive: 0.032,inactive: 0,inactive: -0.004,inactive: 0.001,inactive: 0.015,active: -0.244,inactive: -0.127,inactive: -0.042,inactive: 0.004,inactive: 0.037,inactive: -0.011,inactive: 0.076,inactive: 0.002,inactive: 0.056,inactive: 0.031,inactive: -0.006,,
PGPEP1 (UniProt Q9NXJ5),inactive: 0.004,inactive: -0.193,inactive: 0.07,inactive: 0.08,,inactive: 0.136,inactive: -0.008,inactive: 0.083,inactive: 0.028,,,,inactive: -0.602,,inactive: 0.071,inactive: 0.012,inactive: -0.101,inactive: 0.122,inactive: -0.02,
PIKFYVE (UniProt Q9Y2I7),inactive: -0.016,inactive: -0.068,inactive: 0.096,inactive: 0.073,inactive: -0.062,inactive: 0.091,inactive: 0.023,inactive: -0.061,inactive: -0.031,inactive: 0.153,inactive: -0.015,inactive: 0.045,inactive: -0.061,inactive: -0.092,inactive: 0.005,inactive: 0.031,inactive: 0.108,inactive: 0.017,,
PFN1 (UniProt I3L3D5),inactive: 0.107,inactive: 0.054,inactive: -0.172,inactive: 0.164,inactive: -0.013,,inactive: -0.135,inactive: -0.361,inactive: -0.39,inactive: -0.436,,,,,inactive: -0.158,inactive: -0.001,inactive: 0.13,inactive: -0.031,,inactive: -0.055
PIK3CA (UniProt P42336),inactive: -0.089,,inactive: 0.035,inactive: 0.134,,,,inactive: -0.085,inactive: -0.072,,inactive: -0.325,inactive: 0.453,,inactive: -0.033,inactive: -0.125,inactive: -0.179,,inactive: 0.126,,
PLA2G4B isoform 6 (UniProt P0C869),inactive: -0.009,inactive: -0.092,,inactive: -0.032,inactive: -0.045,inactive: -0.121,inactive: 0.166,inactive: -0.05,inactive: -0.064,inactive: -0.092,inactive: -0.084,inactive: 0.135,inactive: -0.048,inactive: 0.019,inactive: 0.193,inactive: -0.157,inactive: -0.019,inactive: 0.021,inactive: 0.165,inactive: -0.293
PIGW (UniProt Q7Z7B1),inactive: 0.047,,inactive: -0.001,,inactive: -0.014,inactive: 0.062,,,inactive: -0.053,inactive: -0.027,inactive: -0.024,inactive: -0.059,inactive: 0.027,inactive: 0.03,,,inactive: -0.039,inactive: 0.053,inactive: 0.122,inactive: -0.112
PHYKPL (UniProt Q8IUZ5),inactive: 0.007,,inactive: 0.05,,inactive: -0.096,inactive: 0.419,,,,inactive: -0.032,inactive: 0.096,inactive: 0.03,inactive: -0.115,inactive: -0.049,,,inactive: 0.034,inactive: 0.036,inactive: 0.274,inactive: 0.008
PLD6 (UniProt Q8N2A8),inactive: -0.076,inactive: -0.092,inactive: -0.151,,,,inactive: 0.071,,,,,,,,,,inactive: 0.153,,,

# Copied from the list:
# Entry of PIGW (UniProt Q7Z7B1) under log2 fold change [9]: inactive: -0.053
# Entry of PEX3 (UniProt P56589) under log2 fold change [7]: inactive: -0.044
